Data reported in the supplement of paper PMC6078165.

Tested on: MDAMB436
Assay: relative JC-1 red fluorescence (viability) vs pre-drug, coculture with fibroblast (fraction); higher = more viable cancer cells
Conditions: 100 µM
Procedure: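 JC-1 labelled TNBC cells cocultured 1:1 (1,500 cells each) with CellTrace Violet stained primary or stromal fibroblasts in 384-well plates in FluoroBrite medium, treated with one of 42 anticancer drugs at 0.1, 1, 10 or 100 uM. JC-1 red fluorescence (mitochondrial integrity in cancer cells only) was read by plate reader every 8 h for 72 h. Values are normalised to each well's pre-drug value. The stock of one drug was tenfold lower, so its dose labels may be too high.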

Nc1ccn([C@@H]2O[C@H](CO)[C@@H](O)C2(F)F)c(=O)n1 [Gemcitabine]
relative JC-1 red fluorescence
Conditions	8 h	16 h	24 h	32 h	40 h	48 h	56 h	64 h	72 h
coculture fibroblast: C12385	0.807	0.696	0.702	0.6286	0.593	0.572	0.555	0.539	0.5299
coculture fibroblast: H6013	0.837	0.727	0.722	0.743	0.743	0.774	0.742	0.737	0.705
coculture fibroblast: H6019	0.761	0.661	0.631	0.557	0.526	0.513	0.489	0.487	0.477
coculture fibroblast: H6076	0.797	0.641	0.621	0.573	0.545	0.505	0.495	0.48	0.476
coculture fibroblast: H6231	0.7414	0.654	0.614	0.566	0.534	0.509	0.515	0.503	0.493
coculture fibroblast: HADF	0.814	0.734	0.721	0.705	0.686	0.707	0.655	0.646	0.605
coculture fibroblast: HCFa	0.8223	0.753	0.758	0.741	0.717	0.739	0.681	0.67	0.613
coculture fibroblast: HCPF	0.77	0.6925	0.609	0.575	0.544	0.501	0.482	0.466	0.45
coculture fibroblast: HHSteC	0.828	0.7531	0.747	0.727	0.722	0.745	0.692	0.683	0.635
coculture fibroblast: HMF	0.7387	0.627	0.564	0.535	0.507	0.49	0.488	0.48	0.475
coculture fibroblast: HPFa	0.8586	0.78472	0.755	0.725	0.7282	0.7521	0.6925	0.6914	0.649
coculture fibroblast: HUF	0.828	0.7168	0.668	0.59097	0.5413	0.506	0.48	0.46	0.451
coculture fibroblast: Hs5	0.7998	0.672	0.656	0.602	0.582	0.547	0.553	0.529	0.522
coculture fibroblast: Hs27A	0.794	0.728	0.7	0.693	0.688	0.728	0.688	0.69	0.639
coculture fibroblast: Hs343T	0.7592	0.627	0.5797	0.538	0.515	0.4874	0.4758	0.4602	0.4621
coculture fibroblast: WS1	0.7981	0.664	0.647	0.57	0.526	0.508	0.481	0.458	0.445

Values are relative to the signal before dosing, not to a vehicle control; the signal also falls without drug.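 Fibroblast labels denote human fibroblasts, mainly primary ones from uterus (C12385, HUF), lung (H6013), bone (Hs27A), adrenal (HADF) and skin (WS1), plus mammary HMF and breast cancer-associated Hs343T. Cancer cells are basal-like or mesenchymal-like triple-negative breast cancer lines. A hit is a response shift exceeding 3x replicate standard deviation. The tissue of the other fibroblasts is not given here.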
